Results on two substances are retold here after paper doi:10.1101/2022.06.15.496240.

Amino acid sequences for entries named in this document (tags omitted). A change or cut given only in a name is not applied to a line headed by its entry.
UniProt Q22235: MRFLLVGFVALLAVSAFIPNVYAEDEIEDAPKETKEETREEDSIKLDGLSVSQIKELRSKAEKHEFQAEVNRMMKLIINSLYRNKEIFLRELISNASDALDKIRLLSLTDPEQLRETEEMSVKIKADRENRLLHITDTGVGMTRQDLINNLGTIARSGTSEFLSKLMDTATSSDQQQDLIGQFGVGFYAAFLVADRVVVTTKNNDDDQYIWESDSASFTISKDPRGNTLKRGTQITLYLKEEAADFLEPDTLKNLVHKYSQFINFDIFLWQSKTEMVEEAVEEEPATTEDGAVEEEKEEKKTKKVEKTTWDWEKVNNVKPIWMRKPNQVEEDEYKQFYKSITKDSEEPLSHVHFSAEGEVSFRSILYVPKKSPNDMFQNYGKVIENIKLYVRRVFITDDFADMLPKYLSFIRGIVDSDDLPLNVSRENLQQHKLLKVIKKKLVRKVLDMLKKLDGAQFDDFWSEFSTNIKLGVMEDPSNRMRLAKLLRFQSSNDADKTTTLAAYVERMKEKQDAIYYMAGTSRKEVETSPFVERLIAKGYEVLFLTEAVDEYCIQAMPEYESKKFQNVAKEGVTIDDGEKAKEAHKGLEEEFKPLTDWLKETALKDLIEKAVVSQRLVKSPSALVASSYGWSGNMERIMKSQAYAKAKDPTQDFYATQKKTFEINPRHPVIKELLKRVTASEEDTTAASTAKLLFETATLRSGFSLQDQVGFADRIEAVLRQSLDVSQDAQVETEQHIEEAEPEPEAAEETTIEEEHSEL

These are yes or no findings as the source states them, for the method shown. In cells and extracts the contact can be indirect. Binding calls can cover weak binding; strength is not graded here. Tags and fused reporters may be left off the sequences shown.

The target in the assay is T1, ASNA-1::GFP (C. elegans) (UniProt P30632).
T1 sequence: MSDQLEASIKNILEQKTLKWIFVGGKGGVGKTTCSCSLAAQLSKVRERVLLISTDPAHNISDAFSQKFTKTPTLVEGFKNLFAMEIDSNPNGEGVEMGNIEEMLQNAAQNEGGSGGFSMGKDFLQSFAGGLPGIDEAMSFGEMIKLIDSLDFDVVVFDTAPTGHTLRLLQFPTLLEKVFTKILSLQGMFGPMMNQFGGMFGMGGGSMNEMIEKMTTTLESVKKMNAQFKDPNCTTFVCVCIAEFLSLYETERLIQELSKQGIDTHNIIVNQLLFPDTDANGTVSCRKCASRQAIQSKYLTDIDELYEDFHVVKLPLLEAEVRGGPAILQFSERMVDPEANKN
Description: co-IP.

Take “3xFlag::ENPL-1(ΔCBD) (from UniProt Q22235)”: the binding entry is reported as “binds”. Then Ollas::DAF-28::MYC (C. elegans), with “no binding”.
